Laboratory results taken from patent US20110171666A1 (priority 2007, published 2011).

Experiment: peptide synthesis
Conditions: lipidation step

QTNDKHKRDTYSSQTNDMHKRDTYAAAAC
step yield: 23%

No end group written: not given here.
